Laboratory results: PubChem BioAssay AID504791 (Drosophila RNAi Screening Center, 2011)

Screen: 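Genes of the fly required for silencing by miRNA, siRNA or endo-siRNA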 (primary screen)
System: Drosophila S2-derived reporter cells
Knock-down reagent: long dsRNA against Drosophila genes, about 150-250 ng dsRNA per well (siRNA assay); about 80-120 ng (miRNA assay)
Time to read-out: about 5 days (siRNA assay); about 4 days (miRNA assay)
Treatment: copper sulfate induction of reporters: 25 µM (siRNA assay); 200 mM stated (miRNA assay), 1-2 days before reading
Measured: 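Per-well ratio of Renilla over firefly light, expressed relative to that plate's average ratio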
Hit rule: 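First-pass picks had plate-scaled ratios over 1.5 for the siRNA assay, over 1.6 for the miRNA assay, or under 0.6; two distinct dsRNAs had to score alike on retest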
The screen tested about 23,000 reagents; this is an unselected part of those that have a named target and a result. In the full data, 199 (0.86%) were called active. 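Plate-scaled ratios behind the calls are not deposited; printed light signals are raw; many rows marked increased or decreased are still called inactive.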 Entries without a mark were called inactive. Reagents against one gene are numbered here. A plus sign joins genes that one reagent is predicted to hit. Not all columns of the deposit are shown. The record does not give: the direction of the score.

gene	reagent no.	stable siRNA reporter change	miRNA reporter change	stable assay Renilla, run 1 (luminescence)
CG14903	1			7200
CG4935	1			8285
CG8003	1			7814
E(Pc)	1			5599
E(Pc)	2			5224
Cyp6d4	1			8869
Glt	1		reporter ratio lowered past the hit cutoff	6918
CG11529	1			6835
Cpr49Ag	1			6271
Vps35	1			7313
Zip71B	1			7719
Tctp	1			6107
CG14234	1			6392
CG14234	2			5786
rictor	1			5999
side-III	1			8094
side-III	2	reporter ratio raised past the hit cutoff		6218
side-III	3			7278
VhaM9.7-a	1			6418
cass	1			1.12e5
CG9664	1			19457
CG1764	1			7131
Cpr76Bb	1			6955
Cpr76Bb	2			4883
Jhbp14	1			7577
betaGlu	1			7435
Dfd	1			6539
CG11095	1			7747
SK	1			4715
SK	2			6696
SK	3			5939
SK	4			5367
SK	5			8190
SK	6			8427
Grp170	1			6232
trk	1			7795
CG33296	1			4443
Polr1D + DCTN6-p27	1			6498
Dpy-30L1	1			7607
Ypel	1			8559
HDAC4	1			5128
HDAC4	2		reporter ratio raised past the hit cutoff	
CG1663	1			5822
CG1663	2			3251
crim	1			8641
CG30002	1			4879
CG32544	1			5964
CG5098	1			7686
Ccn	1			5551
Ccn	2			4938
Ccn	3			8620
Ccn	4			8003
lky	1			4775
spri	1			4228
spri	2			6362
spri	3			6448
spri	4			6403
spri	5			6527
spri	6			5308
spri	7			4744
CG1542	1			8573
CG8952	1			6850
Gr93c	1			7289
Tbc1d8-9	1			11121
CG11085	1			4964
CG11085	2			4424

7 entries from above, set out differently:
gene,reagent no.,stable siRNA reporter change,miRNA reporter change,"stable assay Renilla, run 1 (luminescence)"
HDAC4,1,,,5128
HDAC4,2,,reporter ratio raised past the hit cutoff,
CG1663,1,,,5822
CG1663,2,,,3251
crim,1,,,8641
CG30002,1,,,4879
CG32544,1,,,5964
